Earlier results, collected in patent US20110052509A1, “COMPOSITIONS COMPRISING BASIC AMINO ACID AND SOLUBLE CARBONATE SALT” (Colgate-Palmolive Company, priority 2008, published 2011).
At least one compound was matched to its structure with a doubt left.

Details: water, room temperature, normal carbon dioxide partial pressure

O=C=O [carbon dioxide]
maximum concentration of carbon dioxide in the solution: about 1.2×10−5 M
